In patent US10401361B2 (Marker Gene Technologies, Inc., priority 2009, dated 2019):

Assay: peptide synthesis
Settings: conjugation step

| Substance | conjugation yield |
| --- | --- |
| Rhodamine 110, Mono-3-Maleimidopropionamide, Mono-Cbz-Asp(t-Bu), Conjugated to ER-Targeting Peptide (M2444) | 57% |
| Rhodamine 110, Mono-3-Maleimidopropionamide, Mono-Cbz-Asp(t-Bu), Conjugated to Golgi Apparatus-Targeting Peptide (M2445) | 92% |
| Rhodamine 110, Mono-3-Maleimidopropionamide, Mono-Cbz-Asp(t-Bu), Conjugated to Nonsense Peptide (M2453) | 100% |
